Results are given in words; binding and its absence hold for the method and conditions named. Some binding calls cover weakened binding; strength is not graded here.

Chains of the proteins cited; added tags and fusions are not shown. Residues count along the entry.
UniProt Q5VWK5, residues 24-629: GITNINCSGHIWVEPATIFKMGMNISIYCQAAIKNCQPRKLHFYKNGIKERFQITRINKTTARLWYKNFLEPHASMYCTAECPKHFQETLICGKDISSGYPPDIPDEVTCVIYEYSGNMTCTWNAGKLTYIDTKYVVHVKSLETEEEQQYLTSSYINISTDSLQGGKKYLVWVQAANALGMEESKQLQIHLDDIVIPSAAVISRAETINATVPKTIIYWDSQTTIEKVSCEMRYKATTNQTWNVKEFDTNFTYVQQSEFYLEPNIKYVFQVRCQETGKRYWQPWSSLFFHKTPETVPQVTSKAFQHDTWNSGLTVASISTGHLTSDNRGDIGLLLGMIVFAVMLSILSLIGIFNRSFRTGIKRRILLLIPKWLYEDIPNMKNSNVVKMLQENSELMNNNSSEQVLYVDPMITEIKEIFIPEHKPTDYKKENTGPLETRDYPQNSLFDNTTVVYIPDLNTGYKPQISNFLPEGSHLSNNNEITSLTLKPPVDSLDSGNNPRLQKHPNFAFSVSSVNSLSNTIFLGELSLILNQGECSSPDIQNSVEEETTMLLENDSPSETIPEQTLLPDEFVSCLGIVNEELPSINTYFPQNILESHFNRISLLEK

The target in the test is human IL-23R on the cell surface (human) (UniProt Q5VWK5). As to the kind of experiment: flow cytometry, HEK-IL-23R cells.

B1: I23RB81 (antibody, mouse IgG2a, kappa, V domains shown)
VH: DVQLQESGPGLVAPSQSLSITCTVSGFSLTSYAINWVRQPPGKGLEWLGVIWTGGGTNYNSALKSRLSISKDNSKSQLFLKMNSLQTDDTARYYCARNRDYSNYRWYFDVWGAGTSVTVSS
VL: DIVMTQSHKFMSTSVGDRVSIICKASQDVSTAVAWYQQKPGQSPKLLIYSASYRYTGVPDRFTGSGSGTDFTFTISSVQAEDLAVYYCQQHYSTPLTFGAGTRLEIKR
Consider B1, for which the binding result is given as “binds”.

Source of the values: patent publication US20250179196A1.
